Assay results published in patent publication US20210260212A1.
Results are given in words; binding and its absence hold for the method and conditions named. Some results given as binding are weak or reduced against the parent protein; the word gives no strength.

Sequences of proteins named here, by UniProt entry; tags and fusion partners are left off. A change or cut given only in a name is not applied to a line headed by its entry.
UniProt P06729: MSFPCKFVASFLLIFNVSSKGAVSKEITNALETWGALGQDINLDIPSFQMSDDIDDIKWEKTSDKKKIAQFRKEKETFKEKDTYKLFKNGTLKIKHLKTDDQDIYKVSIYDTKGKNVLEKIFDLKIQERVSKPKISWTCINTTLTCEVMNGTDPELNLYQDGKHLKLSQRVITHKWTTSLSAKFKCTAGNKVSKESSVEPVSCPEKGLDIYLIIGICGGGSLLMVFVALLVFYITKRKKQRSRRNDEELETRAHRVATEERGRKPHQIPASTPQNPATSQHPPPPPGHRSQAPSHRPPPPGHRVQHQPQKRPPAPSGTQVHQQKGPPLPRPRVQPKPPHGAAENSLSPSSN

Experiments:
[1] = target: human CD2 on the surface of cells (MOLT-4 human T lymphoblast cells; primary human T-cells; primary human NK cells) (human) (UniProt P06729); test: flow cytometry on MOLT-4 cells, secondary anti-mouse AF488, gMFI
[2] = target: human CD2 on the surface of cells (MOLT-4 human T lymphoblast cells; primary human T-cells; primary human NK cells) (human) (UniProt P06729); test: flow cytometry on primary human T-cells, secondary AF488 stain, MFI

binding [1]: binds
binding [2]: binds
B1: RPA-2.10 mIgG1 (murine anti-CD2 antibody) (antibody, V domains shown)
VH: EVKLVESGGGLVKPGGSLKLSCAASGFTFSSYDMSWVRQTPEKRLEWVASISGGGFLYYLDSVKGRFTISRDNARNILYLHMTSLRSEDTAMYYCARSSYGEIMDYWGQGTSVTVSS
VL: DILLTQSPAILSVSPGERVSFSCRASQRIGTSIHWYQQRTTGSPRLLIKYASESISGIPSRFSGSGSGTDFTLSINSVESEDVADYYCQQSHGWPFTFGGGTKLEIER
